From publication PMC10816986, “The Role of Key Amino Acids of the Human Fe(II)/2OG-Dependent Dioxygenase ALKBH3 in Structural Dynamics and Repair Activity toward Methylated DNA” (International Journal of Molecular Sciences, 2024)

Legend:
[1] = tested on: m3C_FRET substrate (m3C-containing DNA); experiment: Stopped-flow FRET pre-steady-state kinetics of m3C DNA demethylation; format: biochemical; conditions: 1 ms–1000 s after mixing 1.5 µM m3C_FRET with 1.5 µM protein
Text: In previous research, we employed a stopped-flow (SF) method to detect conformational changes in the dioxygenases AlkB and ALKBH2, as well as their substrates, throughout the catalytic cycle. The SF technique provides excellent opportunities for studying the conformational dynamics of protein–nucleic acid complexes under pre-steady-state conditions within the millisecond time range. Conformational transitions are typically detected by measuring the fluorescent signal from the tryptophan residues of the enzyme or fluorescent labels incorporated into the DNA substrate sequence. […] It should be noted that another common approach to detecting conformational dynamics based on measurement of the intrinsic Trp fluorescence of ALKBH3 was unsuccessful due to a low signal-to-noise ratio. The time-dependent FRET signal profiles following rapid (1 ms) mixing of equimolar amounts of enzyme and the m3C_FRET substrate in the presence of Fe(II) and 2OG ligands were obtained under near single-turnover conditions (Figure 3). […] Subsequently, from 10 s to 250 s, a significant quenching of fluorescence occurs, followed by stabilization at a constant level. […]
For wt and Y143F ALKBH3, a series of SF traces were recorded across a range of m3C substrate concentrations from 0.5 to 4.0 µM (Figure 4). […]
Table 1 summarizes the values of the rate constants describing the forward and reverse reactions of the mechanism, as well as the equilibrium dissociation constant of the enzyme–product complex. […] To assess the overall affinity of ALKBH3’s active site for damaged DNA, the equilibrium constant Ka = K1 + K1 × K2 + K1 × K2 × K3, where Ki = ki/k−i, was determined. […]
Figure 3 Time courses of the FRET signal generated by the FAM/BHQ1 pair under interactions of wt, Y143F, Y143A, L177A, and H191A ALKBH3 with m3C-containing DNA. The fluorescence traces represent changes in the FRET signal after rapid mixing of 1.5 µM m3C_FRET substrate with 1.5 µM protein in the presence of 40 µM Fe(II) and 1 mM 2OG. […]

[2] = Far-UV CD spectroscopy, secondary structure content (BeStSel); format: physicochemical; conditions: for Antiparallel β-Strands Left-Twisted / Antiparallel β-Strands Relaxed / Antiparallel β-Strands Right-Twisted / Other (poorly ordered structures) / Parallel β-Strands / Turns / α-Helixes Distorted / α-Helixes Regular: apo protein 0.2 mg/mL, 11 °C, BeStSel
Description: To assess the effect of key amino acid substitution on the ALKBH3’s secondary structure content circular CD spectra of each protein variant in the apo state were recorded in accordance with experimental conditions optimized in our previous study.
The secondary structure content was determined by processing experimental spectra using the […] (BeStSel, Budapest, Hungary) and CDSSTR (DichroWeb, London, UK) algorithms. […] A detailed description of the parameter optimization process for each algorithm is provided in our recent work. The BeStSel package was selected for further analysis as it provides more information regarding the structural organization of the protein. As follows from data summarized in Table 3, antiparallel β-strands predominate in the structure of the wild-type ALKBH3 (37.6%), with a considerable portion existing in right-twisted and relaxed conformations. The protein sequence also contains a significant number of loop motifs (12.6%) and poorly ordered structures (~44.7%), which may constitute the N-terminal domain. Only 5.2% of the amino acid sequence is composed of α-helices. Utilizing the protein architecture and topology prediction feature available in BeStSel, it was established that the obtained CD spectrum belongs (with a probability of 96%) to the class of β-proteins with a sandwich or β-barrel architecture. Such a distribution corresponds to the structure of ALKBH3 determined by X-ray crystallography for a truncated form of the enzyme lacking 69 amino acids from the N-terminus (PDB 2IUW). Specifically, the β7-β14 strands form two antiparallel sheets of a central “jellyroll” fold, which constitutes the catalytically active DSBH domain (Figure 1). Thus, the CD method we selected enabled us to determine the composition of the secondary structure of ALKBH3 with a high degree of precision.
Far-UV CD spectra from 185 to 280 nm were recorded using a J600 spectrometer (Jasco, Tokyo, Japan) in a 0.1 cm path lengths quartz cuvette (Starna Cells, CA, USA). In all cases, the protein sample (~50 nmol) was dialyzed two times against the CD buffer containing 10 mM of Potassium Phosphate (pH 7.8) and 50 mM of (NH4)2SO4. The protein concentration was verified by absorption at 280 nm and adjusted to 0.2 mg/mL. CD spectra for the determination of secondary structures were collected three times (each spectrum was an average of 10 repeats) at a speed of 50 nm/min and a 1 nm step size (spectral bandwight 2 nm). To increase stability, the protein samples were cooled 11 °C during recording. Data were corrected for a baseline by subtraction of the buffer spectrum and expressed as mean residue ellipticity [θ] (deg.·cm^2·dmol^−1). To estimate the secondary structures, each spectrum between […] and 250 nm was analyzed by both the DichroWeb and BeStSel online programs using the CDSSTR method.
Figure 5 Far-UV CD spectra of wt (blue), Y143F (yellow), Y143A (green), L177A (red), and H191A (purple) ALKBH3 collected from 0.2 mg/mL protein at 11 °C in the absence of ligands. Each spectrum was measured three times, corrected for background, averaged, and expressed as mean residue ellipticity θ (deg·cm^2·dmol^−1).

Molecule	changes in the FRET signal [1]	increase in loop motifs over wt ALKBH3 [2] [fold]	Antiparallel β-Strands Left-Twisted [2] [%]	Antiparallel β-Strands Relaxed [2] [%]	Antiparallel β-Strands Right-Twisted [2] [%]	Other (poorly ordered structures) [2] [%]	Parallel β-Strands [2] [%]	Turns [2] [%]	α-Helixes Distorted [2] [%]	α-Helixes Regular [2] [%]	decrease in relaxed antiparallel β-strands vs wt [2] [fold]	increase in the turn content vs wt [2] [%]	Other (poorly ordered structures) ([2]; listed as WT) [%]	Other (poorly ordered structures) ([2]; listed as wild-type ALKBH3)	antiparallel β-strands, total ([2]; sum of Table 3 components) [%]
Y143A ALKBH3: ALKBH3 mutant, Tyr143 replaced with Ala (protein, UniProt Q96Q83 1-286, looked up, variant Y143A) Alpha-ketoglutarate-dependent …: MEEKRRRARVQGAWAAPVKSQAIAQPATTAKSHLHQKPGQTWKNKEHHLSDREFVFKEPQQVVRRAPEPRVIDREGVYEISLSPTGVSRVCLYPGFVDVKEADWILEQLCQDVPWKQRTGIREDITYQQPRLTAWYGELPYTASRITMEPNPHWHPVLRTLKNRIEENTGHTFNSLLCNLYRNEKDSVDWHSDDEPSLGRCPIIASLSFGATRTFEMRKKPPPEENGDYTYVERVKIPLDHGTLLIMEGATQADWQHRVPKEYHSREPRVNLTFRTVYPDPRGAPW	No reliable changes in the FRET signal were detected	1.5	0	1.4	15.2	49.2	0	19.2	5.9	9.1					
L177A ALKBH3: ALKBH3 mutant, Leu177 replaced with Ala (protein, UniProt Q96Q83 1-286, looked up, variant L177A) Alpha-ketoglutarate-dependent …: MEEKRRRARVQGAWAAPVKSQAIAQPATTAKSHLHQKPGQTWKNKEHHLSDREFVFKEPQQVVRRAPEPRVIDREGVYEISLSPTGVSRVCLYPGFVDVKEADWILEQLCQDVPWKQRTGIREDITYQQPRLTAWYGELPYTYSRITMEPNPHWHPVLRTLKNRIEENTGHTFNSLACNLYRNEKDSVDWHSDDEPSLGRCPIIASLSFGATRTFEMRKKPPPEENGDYTYVERVKIPLDHGTLLIMEGATQADWQHRVPKEYHSREPRVNLTFRTVYPDPRGAPW	No reliable changes in the FRET signal were detected		0	5.4	15.8	48.3	0	16.5	6.0	8.1					
H191A ALKBH3: ALKBH3 mutant, His191 replaced with Ala (protein, UniProt Q96Q83 1-286, looked up, variant H191A) Alpha-ketoglutarate-dependent …: MEEKRRRARVQGAWAAPVKSQAIAQPATTAKSHLHQKPGQTWKNKEHHLSDREFVFKEPQQVVRRAPEPRVIDREGVYEISLSPTGVSRVCLYPGFVDVKEADWILEQLCQDVPWKQRTGIREDITYQQPRLTAWYGELPYTYSRITMEPNPHWHPVLRTLKNRIEENTGHTFNSLLCNLYRNEKDSVDWASDDEPSLGRCPIIASLSFGATRTFEMRKKPPPEENGDYTYVERVKIPLDHGTLLIMEGATQADWQHRVPKEYHSREPRVNLTFRTVYPDPRGAPW	No reliable changes in the FRET signal were detected		0	1.6	14.5	49.8	1.1	16.6	7.9	8.4	9.5	4			
Y143F ALKBH3: ALKBH3 mutant, Tyr143 replaced with Phe (protein, UniProt Q96Q83 1-286, looked up, variant Y143F) Alpha-ketoglutarate-dependent …: MEEKRRRARVQGAWAAPVKSQAIAQPATTAKSHLHQKPGQTWKNKEHHLSDREFVFKEPQQVVRRAPEPRVIDREGVYEISLSPTGVSRVCLYPGFVDVKEADWILEQLCQDVPWKQRTGIREDITYQQPRLTAWYGELPYTFSRITMEPNPHWHPVLRTLKNRIEENTGHTFNSLLCNLYRNEKDSVDWHSDDEPSLGRCPIIASLSFGATRTFEMRKKPPPEENGDYTYVERVKIPLDHGTLLIMEGATQADWQHRVPKEYHSREPRVNLTFRTVYPDPRGAPW			1.9	8.8	20.3	46.1	0	11.8	2.9	8.2					
wt ALKBH3: wild-type human Fe(II)/2OG-dependent dioxygenase ALKBH3 with N-terminal His-tag, expressed in E. coli (protein, UniProt Q96Q83 1-286, looked up, N-terminal His-tag, wild-type human Fe(II)/2OG-dependent dioxygenase ALKBH3 with N-terminal His-tag, expressed in E. coli) Alpha-ketoglutarate-dependent …: MEEKRRRARVQGAWAAPVKSQAIAQPATTAKSHLHQKPGQTWKNKEHHLSDREFVFKEPQQVVRRAPEPRVIDREGVYEISLSPTGVSRVCLYPGFVDVKEADWILEQLCQDVPWKQRTGIREDITYQQPRLTAWYGELPYTYSRITMEPNPHWHPVLRTLKNRIEENTGHTFNSLLCNLYRNEKDSVDWHSDDEPSLGRCPIIASLSFGATRTFEMRKKPPPEENGDYTYVERVKIPLDHGTLLIMEGATQADWQHRVPKEYHSREPRVNLTFRTVYPDPRGAPW			3.4	15.2	19.0		0	12.6	1.7	3.5			44.7	~ 44.7%	37.6

Some compounds share one wording; it may come from a single statement.
